The other results are listed elsewhere or left out.
Experiments:
Assay in all cases: log2 fold change, soluble protein after heating vs DMSO (PISA); higher = thermal stabilisation; K562 lysate, 10 uM; active = over 0.2 and 3.5 SD of the protein, either way, in both replicates (recomputed)
[1] = compound: NCC(=O)Nc1ccc(-n2nc(C(F)(F)F)cc2-c2ccc3c(ccc4ccccc43)c2)cc1
Outline: (§1)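 K562 pellets were dounce-homogenised in PBS pH 7.4 with 1 mM MgCl2, and the crude extract at 1 mg/mL protein was treated with 10 μM compound for 30 min. Aliquots were heated for 3 min across 48°C-58°C, pooled, and brought to 0.5% NP-40 at 4°C; soluble protein was the supernatant after 21,000xg for 90 min. Soluble protein was quantified by TMTpro 16plex LC-MS/MS with channel sums equalised, and reported as log2 fold change in thermal stability against DMSO controls, with values from duplicates.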

Protein sequences, listed by entry. Tags and fused reporters are not part of them. Lines headed by an entry give the natural chain unless they say otherwise; changes in a name come on top.
UniProt P54922: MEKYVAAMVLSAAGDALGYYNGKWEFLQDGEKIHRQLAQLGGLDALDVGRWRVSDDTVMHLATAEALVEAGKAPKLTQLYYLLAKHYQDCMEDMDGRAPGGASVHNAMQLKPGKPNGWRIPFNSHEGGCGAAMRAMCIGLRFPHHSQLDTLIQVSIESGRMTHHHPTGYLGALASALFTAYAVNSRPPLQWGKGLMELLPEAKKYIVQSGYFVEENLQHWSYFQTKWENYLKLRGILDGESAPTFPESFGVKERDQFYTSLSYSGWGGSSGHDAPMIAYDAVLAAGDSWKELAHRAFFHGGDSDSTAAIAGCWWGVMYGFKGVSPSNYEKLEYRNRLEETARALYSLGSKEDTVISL
UniProt P35612: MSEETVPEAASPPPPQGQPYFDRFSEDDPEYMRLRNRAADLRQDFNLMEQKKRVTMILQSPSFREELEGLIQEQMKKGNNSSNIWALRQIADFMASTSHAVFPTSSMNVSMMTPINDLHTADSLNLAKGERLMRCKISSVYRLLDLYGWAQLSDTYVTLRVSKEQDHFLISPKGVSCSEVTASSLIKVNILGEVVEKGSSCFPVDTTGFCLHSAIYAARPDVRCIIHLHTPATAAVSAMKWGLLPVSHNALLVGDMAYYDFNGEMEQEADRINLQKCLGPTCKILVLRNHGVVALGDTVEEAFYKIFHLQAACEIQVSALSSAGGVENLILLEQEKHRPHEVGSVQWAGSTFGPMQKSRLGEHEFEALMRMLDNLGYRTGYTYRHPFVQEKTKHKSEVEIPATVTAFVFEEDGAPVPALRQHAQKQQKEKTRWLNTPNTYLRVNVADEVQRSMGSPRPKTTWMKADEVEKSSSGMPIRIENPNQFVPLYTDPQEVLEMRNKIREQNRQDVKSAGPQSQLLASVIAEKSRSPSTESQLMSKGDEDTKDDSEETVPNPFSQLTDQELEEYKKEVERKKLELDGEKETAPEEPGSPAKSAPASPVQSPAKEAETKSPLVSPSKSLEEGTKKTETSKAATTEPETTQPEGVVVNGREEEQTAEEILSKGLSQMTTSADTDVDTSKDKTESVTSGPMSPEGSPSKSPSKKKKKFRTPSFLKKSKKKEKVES
UniProt O95831, whole entry, looked up: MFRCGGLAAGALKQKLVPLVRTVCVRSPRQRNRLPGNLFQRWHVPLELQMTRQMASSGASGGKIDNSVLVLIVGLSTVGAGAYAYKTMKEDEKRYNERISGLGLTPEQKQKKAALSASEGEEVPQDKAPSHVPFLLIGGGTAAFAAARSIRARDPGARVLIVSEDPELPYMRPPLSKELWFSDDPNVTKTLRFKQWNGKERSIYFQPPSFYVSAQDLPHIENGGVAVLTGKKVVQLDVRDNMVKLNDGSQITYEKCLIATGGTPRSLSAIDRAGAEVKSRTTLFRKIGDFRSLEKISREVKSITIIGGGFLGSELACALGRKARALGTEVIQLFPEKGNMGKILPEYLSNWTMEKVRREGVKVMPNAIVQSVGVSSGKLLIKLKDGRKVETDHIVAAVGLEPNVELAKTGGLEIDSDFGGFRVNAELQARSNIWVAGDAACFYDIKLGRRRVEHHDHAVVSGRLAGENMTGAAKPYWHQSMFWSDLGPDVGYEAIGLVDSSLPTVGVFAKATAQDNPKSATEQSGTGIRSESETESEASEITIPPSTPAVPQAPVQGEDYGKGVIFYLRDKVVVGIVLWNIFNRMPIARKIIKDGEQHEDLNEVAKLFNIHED
UniProt P55008: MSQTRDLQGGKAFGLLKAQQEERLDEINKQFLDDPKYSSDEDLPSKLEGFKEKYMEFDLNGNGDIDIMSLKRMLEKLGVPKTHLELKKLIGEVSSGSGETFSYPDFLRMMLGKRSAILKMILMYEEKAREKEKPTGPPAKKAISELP
UniProt O43865, whole entry, looked up: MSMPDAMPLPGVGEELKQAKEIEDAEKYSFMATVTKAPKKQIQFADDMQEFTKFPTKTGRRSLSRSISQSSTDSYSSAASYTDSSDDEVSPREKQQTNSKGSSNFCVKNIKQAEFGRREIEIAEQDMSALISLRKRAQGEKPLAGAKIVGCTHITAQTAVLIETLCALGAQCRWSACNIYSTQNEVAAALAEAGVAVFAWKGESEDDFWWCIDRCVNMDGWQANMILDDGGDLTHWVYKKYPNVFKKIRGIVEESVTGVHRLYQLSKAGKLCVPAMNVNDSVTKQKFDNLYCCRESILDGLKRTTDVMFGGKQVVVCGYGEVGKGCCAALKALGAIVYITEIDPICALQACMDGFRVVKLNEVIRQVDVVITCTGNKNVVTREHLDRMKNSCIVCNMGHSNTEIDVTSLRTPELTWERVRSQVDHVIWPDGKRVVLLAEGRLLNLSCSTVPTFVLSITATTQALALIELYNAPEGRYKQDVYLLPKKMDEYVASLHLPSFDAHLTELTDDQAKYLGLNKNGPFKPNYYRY
UniProt Q13705: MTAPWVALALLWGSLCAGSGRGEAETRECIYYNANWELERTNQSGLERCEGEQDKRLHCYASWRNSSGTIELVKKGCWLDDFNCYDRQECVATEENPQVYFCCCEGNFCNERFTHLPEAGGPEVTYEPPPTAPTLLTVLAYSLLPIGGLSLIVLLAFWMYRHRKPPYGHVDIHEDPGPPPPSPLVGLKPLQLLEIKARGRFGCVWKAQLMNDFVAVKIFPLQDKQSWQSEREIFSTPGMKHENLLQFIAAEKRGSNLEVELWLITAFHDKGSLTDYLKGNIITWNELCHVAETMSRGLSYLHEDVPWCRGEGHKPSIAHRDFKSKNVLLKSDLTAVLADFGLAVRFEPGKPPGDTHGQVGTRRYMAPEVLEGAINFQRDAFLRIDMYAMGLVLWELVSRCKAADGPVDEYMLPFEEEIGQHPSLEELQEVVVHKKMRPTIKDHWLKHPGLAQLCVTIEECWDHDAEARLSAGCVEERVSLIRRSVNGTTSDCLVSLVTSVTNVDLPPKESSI
UniProt Q9Y4W6: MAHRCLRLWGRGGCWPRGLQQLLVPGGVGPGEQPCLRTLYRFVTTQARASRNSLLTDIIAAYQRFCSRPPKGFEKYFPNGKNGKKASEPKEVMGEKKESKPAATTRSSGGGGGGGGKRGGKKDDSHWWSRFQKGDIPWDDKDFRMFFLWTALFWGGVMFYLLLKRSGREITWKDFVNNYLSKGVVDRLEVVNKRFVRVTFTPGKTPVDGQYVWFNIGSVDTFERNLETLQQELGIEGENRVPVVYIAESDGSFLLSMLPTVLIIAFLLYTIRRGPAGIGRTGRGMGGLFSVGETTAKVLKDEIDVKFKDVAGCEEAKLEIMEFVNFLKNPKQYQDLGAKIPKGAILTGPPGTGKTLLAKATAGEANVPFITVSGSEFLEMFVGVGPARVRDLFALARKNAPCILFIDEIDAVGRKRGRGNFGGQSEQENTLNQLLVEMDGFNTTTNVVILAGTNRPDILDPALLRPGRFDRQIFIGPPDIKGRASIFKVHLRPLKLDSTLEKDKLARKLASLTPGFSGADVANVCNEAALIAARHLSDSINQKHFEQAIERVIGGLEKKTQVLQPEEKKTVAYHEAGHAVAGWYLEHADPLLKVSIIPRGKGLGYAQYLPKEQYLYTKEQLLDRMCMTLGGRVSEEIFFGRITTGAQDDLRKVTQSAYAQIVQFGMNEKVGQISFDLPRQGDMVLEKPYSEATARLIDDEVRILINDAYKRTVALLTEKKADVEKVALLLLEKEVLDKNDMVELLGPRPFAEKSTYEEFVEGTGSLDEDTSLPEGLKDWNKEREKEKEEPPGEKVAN
UniProt P30566: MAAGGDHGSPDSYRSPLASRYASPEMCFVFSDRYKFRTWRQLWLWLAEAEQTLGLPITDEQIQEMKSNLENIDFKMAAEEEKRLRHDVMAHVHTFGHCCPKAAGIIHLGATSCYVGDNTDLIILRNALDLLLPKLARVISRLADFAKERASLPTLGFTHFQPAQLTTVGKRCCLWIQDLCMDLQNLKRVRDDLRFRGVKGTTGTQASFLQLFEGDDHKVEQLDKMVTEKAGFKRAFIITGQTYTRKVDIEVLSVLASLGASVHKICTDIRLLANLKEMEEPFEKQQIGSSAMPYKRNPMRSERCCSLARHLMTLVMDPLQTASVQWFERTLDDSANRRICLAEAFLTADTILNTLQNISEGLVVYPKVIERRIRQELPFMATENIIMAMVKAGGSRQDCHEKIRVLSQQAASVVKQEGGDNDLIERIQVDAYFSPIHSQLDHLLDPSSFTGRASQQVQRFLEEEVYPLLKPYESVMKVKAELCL
UniProt P00813: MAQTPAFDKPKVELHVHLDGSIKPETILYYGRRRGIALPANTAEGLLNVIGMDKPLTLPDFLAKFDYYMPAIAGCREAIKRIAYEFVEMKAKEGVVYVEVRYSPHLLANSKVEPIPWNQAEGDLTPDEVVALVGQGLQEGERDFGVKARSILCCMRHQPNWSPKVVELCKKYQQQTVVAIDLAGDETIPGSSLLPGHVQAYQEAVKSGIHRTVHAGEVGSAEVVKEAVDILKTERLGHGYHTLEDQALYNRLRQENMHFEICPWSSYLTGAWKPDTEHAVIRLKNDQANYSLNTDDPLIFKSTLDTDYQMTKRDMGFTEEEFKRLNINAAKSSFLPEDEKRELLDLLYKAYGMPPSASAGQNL
UniProt Q9BRR6: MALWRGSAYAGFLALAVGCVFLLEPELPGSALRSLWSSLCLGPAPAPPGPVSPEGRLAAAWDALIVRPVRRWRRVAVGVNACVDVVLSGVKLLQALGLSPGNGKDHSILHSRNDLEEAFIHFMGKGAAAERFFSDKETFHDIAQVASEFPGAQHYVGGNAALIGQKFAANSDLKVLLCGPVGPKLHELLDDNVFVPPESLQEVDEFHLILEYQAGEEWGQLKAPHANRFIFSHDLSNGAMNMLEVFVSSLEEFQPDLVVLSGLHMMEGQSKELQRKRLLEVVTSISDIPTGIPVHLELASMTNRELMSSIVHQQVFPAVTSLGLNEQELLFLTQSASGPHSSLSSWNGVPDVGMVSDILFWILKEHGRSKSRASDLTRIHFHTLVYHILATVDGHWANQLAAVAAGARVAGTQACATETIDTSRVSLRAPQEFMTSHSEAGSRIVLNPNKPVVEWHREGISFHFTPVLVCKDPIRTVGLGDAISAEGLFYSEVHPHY
UniProt Q9Y6K8: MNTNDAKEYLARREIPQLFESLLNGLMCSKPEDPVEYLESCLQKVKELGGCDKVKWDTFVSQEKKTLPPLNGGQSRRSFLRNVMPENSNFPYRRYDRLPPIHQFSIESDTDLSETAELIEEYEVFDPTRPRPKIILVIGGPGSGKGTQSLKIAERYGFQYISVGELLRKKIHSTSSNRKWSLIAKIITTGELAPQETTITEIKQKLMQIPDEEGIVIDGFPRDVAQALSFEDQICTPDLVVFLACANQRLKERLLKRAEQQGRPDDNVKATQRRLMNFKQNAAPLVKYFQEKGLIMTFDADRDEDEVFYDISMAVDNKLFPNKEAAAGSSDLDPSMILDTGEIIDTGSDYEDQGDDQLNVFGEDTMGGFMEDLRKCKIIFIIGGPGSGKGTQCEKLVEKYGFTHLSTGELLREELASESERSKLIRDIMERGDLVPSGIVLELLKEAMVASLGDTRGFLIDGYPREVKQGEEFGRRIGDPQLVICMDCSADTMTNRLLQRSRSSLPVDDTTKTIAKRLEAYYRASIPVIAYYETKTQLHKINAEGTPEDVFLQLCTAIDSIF
UniProt P02771: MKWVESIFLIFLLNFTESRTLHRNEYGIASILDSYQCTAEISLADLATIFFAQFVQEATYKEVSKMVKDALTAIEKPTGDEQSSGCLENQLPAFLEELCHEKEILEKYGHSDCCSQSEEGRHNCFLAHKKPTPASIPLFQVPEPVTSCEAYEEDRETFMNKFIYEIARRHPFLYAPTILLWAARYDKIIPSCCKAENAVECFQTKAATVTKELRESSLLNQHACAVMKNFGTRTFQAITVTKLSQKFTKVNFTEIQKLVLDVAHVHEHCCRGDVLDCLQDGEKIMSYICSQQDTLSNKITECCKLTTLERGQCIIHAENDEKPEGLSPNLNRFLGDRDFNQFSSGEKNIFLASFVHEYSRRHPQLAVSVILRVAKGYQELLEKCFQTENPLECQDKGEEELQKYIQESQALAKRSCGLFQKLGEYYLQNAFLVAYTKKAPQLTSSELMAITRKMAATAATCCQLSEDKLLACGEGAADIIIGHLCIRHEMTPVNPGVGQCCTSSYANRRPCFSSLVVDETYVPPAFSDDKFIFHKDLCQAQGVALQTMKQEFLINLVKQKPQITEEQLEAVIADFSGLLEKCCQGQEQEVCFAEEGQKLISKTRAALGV
UniProt P14550: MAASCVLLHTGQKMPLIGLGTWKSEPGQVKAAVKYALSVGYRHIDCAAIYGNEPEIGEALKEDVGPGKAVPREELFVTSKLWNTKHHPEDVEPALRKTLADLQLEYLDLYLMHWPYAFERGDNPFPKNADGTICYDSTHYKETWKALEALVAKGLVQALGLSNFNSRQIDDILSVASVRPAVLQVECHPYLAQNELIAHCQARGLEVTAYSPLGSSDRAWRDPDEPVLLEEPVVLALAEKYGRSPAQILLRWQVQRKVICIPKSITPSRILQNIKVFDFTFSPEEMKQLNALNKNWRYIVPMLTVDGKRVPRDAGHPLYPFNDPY

vorinostat = compound: O=C(CCCCCCC(=O)Nc1ccccc1)NO [vorinostat]
Outline: as §1

silmitasertib = compound: O=C(O)c1ccc2c(c1)nc(Nc1cccc(Cl)c1)c1ccncc12 [silmitasertib]
Outline: as §1

[2] = compound: O=C1NC(=O)C(c2cnc3ccccn23)=C1c1cn2c3c(cc(F)cc13)CN(C(=O)N1CCCCC1)CC2
Outline: as §1

entospletinib = compound: c1cn2cc(-c3ccc4cn[nH]c4c3)nc(Nc3ccc(N4CCOCC4)cc3)c2n1 [entospletinib]
Outline: as §1

Target | log2 fold change [1] | log2 fold change (vorinostat) | log2 fold change (silmitasertib) | log2 fold change [2] | log2 fold change (entospletinib)
AGO3 (UniProt Q9H9G7) | inactive: 0.017 | inactive: -0.015 | inactive: -0.022 | inactive: -0.034 | inactive: -0.043
ACSF3 (UniProt Q4G176) | inactive: -0.075 | inactive: -0.105 | inactive: 0.028 | inactive: -0.016 | inactive: 0.004
ACTB, A0A2R8YEA7 | inactive: 0.203 |  |  |  | 
ADPRH (UniProt P54922) | inactive: -0.376 | inactive: -0.038 | inactive: -0.014 | inactive: 0.019 | inactive: -0.028
AGPAT1 (UniProt Q99943) | inactive: -0.027 | active: -0.27 | inactive: 0.106 | inactive: -0.029 | inactive: 0.003
ADD2 (UniProt P35612) | inactive: -0.007 | inactive: 0.082 | inactive: -0.001 | inactive: -0.016 | inactive: 0
AHCYL2 (UniProt Q96HN2) | inactive: -0.003 | inactive: -0.113 | inactive: 0.025 | inactive: -0.013 | inactive: 0.027
ACTR5 (UniProt Q9H9F9) | inactive: 0.002 | inactive: -0.032 | inactive: -0.174 | inactive: -0.055 | inactive: -0.124
AIMP1 isoform 2 (UniProt Q12904) | inactive: -0.01 | active: -0.235 | inactive: 0.02 | inactive: 0.007 | inactive: 0.02
AIFM1 (UniProt O95831) | inactive: 0.011 | inactive: 0.152 | inactive: -0.007 | inactive: -0.036 | inactive: 0.007
ACTR3 (UniProt P61158) | inactive: -0.018 | inactive: 0.064 | inactive: 0.018 | inactive: -0.04 | inactive: 0.042
AIF1 (UniProt P55008) | inactive: -0.033 | inactive: -0.16 | inactive: -0.009 | inactive: 0.017 | 
AGA (UniProt P20933) | inactive: 0.008 | inactive: 0.258 | inactive: 0.053 | inactive: -0.042 | inactive: 0.024
AGRN (UniProt O00468) | inactive: 0.001 | inactive: 0.129 | inactive: -0.041 | inactive: -0.034 | inactive: 0.049
AHCYL1 (UniProt O43865) | inactive: 0.021 | active: -0.287 | inactive: -0.021 | inactive: 0.045 | inactive: -0.03
ADIPOR1 (UniProt Q96A54) | inactive: -0.114 | inactive: 0.124 | inactive: -0.009 | inactive: -0.049 | inactive: 0.041
AFDN (UniProt A8MQ02) | inactive: -0.191 |  |  |  | 
ACYP1 (UniProt P07311) | inactive: -0.015 | inactive: 0.127 | inactive: -0.028 | inactive: -0.002 | inactive: 0.008
ADIPOR2 (UniProt Q86V24) | inactive: 0.026 | inactive: 0.175 | inactive: 0.007 | inactive: 0.042 | inactive: 0

Target | log2 fold change [1] | log2 fold change (vorinostat) | log2 fold change (silmitasertib) | log2 fold change [2] | log2 fold change (entospletinib)
ADD1 isoform 3 (UniProt P35611) | inactive: -0.024 | inactive: 0.048 | inactive: -0.012 | inactive: -0.022 | inactive: -0.014
AK4 (UniProt P27144) | inactive: -0.051 | inactive: 0.037 | inactive: -0.008 | inactive: -0.016 | inactive: -0.02
ACTB, A0A2R8YGF8 | inactive: 0.197 |  |  |  | 
ACYP2 (UniProt P14621) | inactive: 0.066 | inactive: 0.147 | inactive: -0.081 | inactive: 0.012 | 
AKR1C2 (UniProt P52895) | inactive: -0.008 | active: 0.504 | inactive: -0.011 | inactive: 0.052 | inactive: -0.014
ACVR2B (UniProt Q13705) | inactive: 0.212 | inactive: -0.027 | inactive: 0.062 |  | 
AFG3L2 (UniProt Q9Y4W6) | inactive: -0.006 | inactive: 0.126 | inactive: 0.05 | inactive: -0.049 | inactive: -0.044
AGPS (UniProt O00116) | inactive: -0.015 | active: 0.365 | inactive: -0.007 | inactive: -0.007 | inactive: -0.005
ADSL (UniProt P30566) | inactive: 0.027 | inactive: 0.014 | inactive: 0 | inactive: -0.017 | inactive: 0.019
AKAP9 (UniProt Q99996) | inactive: 0.071 | inactive: -0.098 | inactive: 0.003 | inactive: 0.009 | inactive: -0.013
AGO1 (UniProt Q9UL18) | inactive: 0.031 | inactive: 0.08 | inactive: -0.058 | inactive: 0.003 | inactive: -0.06
AK6 (UniProt Q9Y3D8) | inactive: -0.018 | inactive: -0.078 | inactive: 0.001 | inactive: -0.075 | inactive: 0.011
AKIRIN2 (UniProt Q53H80) | inactive: 0.087 | inactive: 0.135 | inactive: -0.065 | inactive: 0.036 | inactive: 0.092
ADSS1 (UniProt Q8N142) | inactive: 0.055 | inactive: -0.068 | inactive: -0.022 | inactive: -0.015 | inactive: -0.02
AK2 (UniProt P54819) | inactive: 0.024 | inactive: 0.159 | inactive: 0.007 | inactive: -0.005 | inactive: 0.012
ACTN4 (UniProt O43707) | inactive: 0.016 | inactive: 0.139 | inactive: -0.027 | inactive: 0.003 | inactive: 0.001
ADA (UniProt P00813) | inactive: 0.035 | inactive: 0.175 | inactive: -0.012 | inactive: -0.116 | inactive: 0.002
AGAP1 (UniProt Q9UPQ3) | inactive: -0.171 | inactive: -0.246 | inactive: 0.007 | inactive: 0.014 | 
ACSL3 (UniProt O95573) | inactive: 0.016 | inactive: -0.129 | inactive: 0.114 | inactive: 0.016 | inactive: 0.023

Complete entries as entered above.
AGAP1 (UniProt Q9UPQ3) in the list: log2 fold change [1]: inactive: -0.171; log2 fold change (vorinostat): inactive: -0.246; log2 fold change (silmitasertib): inactive: 0.007; log2 fold change [2]: inactive: 0.014
AKAP9 (UniProt Q99996) in the list: log2 fold change [1]: inactive: 0.071; log2 fold change (vorinostat): inactive: -0.098; log2 fold change (silmitasertib): inactive: 0.003; log2 fold change [2]: inactive: 0.009; log2 fold change (entospletinib): inactive: -0.013
ACTR5 (UniProt Q9H9F9) in the list: log2 fold change [1]: inactive: 0.002; log2 fold change (vorinostat): inactive: -0.032; log2 fold change (silmitasertib): inactive: -0.174; log2 fold change [2]: inactive: -0.055; log2 fold change (entospletinib): inactive: -0.124

(further entries)

Target | log2 fold change [1] | log2 fold change (vorinostat) | log2 fold change (silmitasertib) | log2 fold change [2] | log2 fold change (entospletinib)
ACSL4 (UniProt O60488) | inactive: 0.137 | active: -0.321 | inactive: 0.066 | inactive: -0.002 | inactive: 0.014
AHSA1 (UniProt O95433) | inactive: 0.011 | inactive: 0.059 | inactive: -0.012 | inactive: -0.009 | inactive: 0.013
ACP1 isoform 2 (UniProt P24666) | inactive: -0.01 | inactive: -0.175 | inactive: 0.03 | inactive: 0.023 | inactive: 0.035
ACTBL2 (UniProt Q562R1) | inactive: -0.116 | inactive: -0.154 | inactive: 0.039 | inactive: 0.019 | inactive: -0.083
AGAP3 isoform 4 (UniProt Q96P47) | inactive: 0.028 | inactive: -0.203 | inactive: -0.019 | inactive: -0.001 | inactive: -0.023
ADPGK (UniProt Q9BRR6) | inactive: 0.014 | inactive: 0.153 | inactive: -0.108 | inactive: -0.029 | inactive: -0.041
AFDN isoform 1 (UniProt P55196) | inactive: 0.024 | inactive: -0.115 | inactive: -0.001 | inactive: -0.032 | inactive: 0.013
AK5 (UniProt Q9Y6K8) | inactive: -0.089 | inactive: 0.093 | inactive: -0.035 | inactive: 0.05 | inactive: 0.029
AFP (UniProt P02771) | inactive: -0.065 | inactive: -0.017 | inactive: 0.057 | inactive: -0.019 | inactive: 0.026
ADAM10 (UniProt O14672) | inactive: 0.065 | inactive: 0.069 | inactive: 0.002 | inactive: -0.005 | inactive: 0.011
ACTN1 isoform 3 (UniProt P12814) | inactive: -0.008 | inactive: 0.097 | inactive: -0.005 | inactive: 0.002 | inactive: 0.027
ACTN2, A0A494C031 | inactive: 0.108 | inactive: -0.078 | inactive: 0.073 | inactive: 0.213 | inactive: -0.215
AGL (UniProt P35573) | inactive: 0 | active: -0.275 | inactive: 0.035 | inactive: 0.001 | inactive: -0.018
ACTB, A0A2R8Y793 | inactive: 0.035 | inactive: -0.128 | inactive: 0.012 | inactive: 0.022 | inactive: -0.019
AKR1A1 (UniProt P14550) | inactive: 0.029 | inactive: 0.004 | inactive: 0.011 | inactive: 0.002 | inactive: 0.011
AHNAK (UniProt Q09666) | inactive: 0.014 | inactive: 0.064 | inactive: -0.02 | inactive: 0.009 | inactive: -0.001
ACTG1 (UniProt I3L4N8) | inactive: -0.131 | inactive: 0.358 | inactive: -0.043 | inactive: 0.082 | inactive: 0.098
AGTPBP1 (UniProt Q9UPW5) | inactive: 0.125 | inactive: -0.033 | inactive: -0.012 | inactive: 0.11 | inactive: 0.035
